No constants are given. Whether binding was seen depends on the method and setting. In cells and extracts the contact can be indirect. Binding calls can cover weak binding; strength is not graded here. Sequences can lack the tags named with a protein.
Target: T1, 3×Flag-GPR177 (UniProt Q5T9L3)
T1 sequence: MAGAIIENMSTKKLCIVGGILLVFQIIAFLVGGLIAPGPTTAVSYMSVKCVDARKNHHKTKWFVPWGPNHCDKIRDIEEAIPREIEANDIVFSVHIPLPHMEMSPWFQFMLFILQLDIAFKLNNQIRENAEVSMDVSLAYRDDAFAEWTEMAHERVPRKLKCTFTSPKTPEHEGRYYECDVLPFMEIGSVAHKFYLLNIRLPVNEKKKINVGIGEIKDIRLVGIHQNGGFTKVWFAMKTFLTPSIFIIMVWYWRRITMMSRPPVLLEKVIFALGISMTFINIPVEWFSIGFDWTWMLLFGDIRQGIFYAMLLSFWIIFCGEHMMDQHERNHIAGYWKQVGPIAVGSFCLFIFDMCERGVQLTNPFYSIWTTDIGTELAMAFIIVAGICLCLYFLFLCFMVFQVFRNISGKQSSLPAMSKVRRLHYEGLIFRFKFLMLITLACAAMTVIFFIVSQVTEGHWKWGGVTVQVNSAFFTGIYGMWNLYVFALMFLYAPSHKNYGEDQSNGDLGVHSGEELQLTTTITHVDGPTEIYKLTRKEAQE
Experiment: co-IP; anti-Flag M2 affinity gel, 2 mg total lysate of 3×Flag-GPR177 stable HeLa cells, 8 h at 4°C, washed three times with 50 mM Tris HCl pH 7.5, 150 mM NaCl, 1 mM EDTA, 1% Triton X-100, eluted with 3×Flag peptides; precipitates blotted for vesicular markers

binding	Substance
binds	RAB9 (human (endogenous in HeLa))
no binding	RAB7 (human (endogenous in HeLa))
binds	RAB5 (human (endogenous in HeLa))
no binding	RAB11 (human (endogenous in HeLa))
